The target in the assay is Gαi protein (human (endogenous in heart tissue)). In words: co-IP; human heart tissue lysate (50 mM Tris HCl pH 7.4, 150 mM NaCl, 1 mM EDTA, 1% Triton X-100) incubated with antibodies against Gα subunits (2 µg each) overnight at 4 °C in a Catch & Release v2.0 spin column; denaturing elution; western blot for OR51E1; unspecific IgG as control.

The source of these data is PMC5258789.

These are yes or no findings as the source states them, for the method shown. Binding seen in cells or lysates may run through a third protein. Binding calls can cover weak binding; strength is not graded here.

B1: odorant receptor OR51E1 (receptor, UniProt Q8TCB6 1-318)
chain: MMVDPNGNESSATYFILIGLPGLEEAQFWLAFPLCSLYLIAVLGNLTIIYIVRTEHSLHEPMYIFLCMLSGIDILISTSSMPKMLAIFWFNSTTIQFDACLLQMFAIHSLSGMESTVLLAMAFDRYVAICHPLRHATVLTLPRVTKIGVAAVVRGAALMAPLPVFIKQLPFCRSNILSHSYCLHQDVMKLACDDIRVNVVYGLIVIISAIGLDSLLISFSYLLILKTVLGLTREAQAKAFGTCVSHVCAVFIFYVPFIGLSMVHRFSKRRDSPLPVILANIYLLVPPVLNPIVYGVKTKEIRQRILRLFHVATHASEP
B1: the binding entry is on record as “binds weakly”.
